Reference: the supplement of paper PMC11006884
This list holds what a sample rich in targets with a hit left over. The data scatter; read single values as rough. Only a part is listed here, and it is no random draw.

The chains behind the UniProt entries cited, without tags or fusion partners. Where a name states a change or a piece, a line headed by the entry shows the natural chain unless it says otherwise.
UniProt Q8NFC6: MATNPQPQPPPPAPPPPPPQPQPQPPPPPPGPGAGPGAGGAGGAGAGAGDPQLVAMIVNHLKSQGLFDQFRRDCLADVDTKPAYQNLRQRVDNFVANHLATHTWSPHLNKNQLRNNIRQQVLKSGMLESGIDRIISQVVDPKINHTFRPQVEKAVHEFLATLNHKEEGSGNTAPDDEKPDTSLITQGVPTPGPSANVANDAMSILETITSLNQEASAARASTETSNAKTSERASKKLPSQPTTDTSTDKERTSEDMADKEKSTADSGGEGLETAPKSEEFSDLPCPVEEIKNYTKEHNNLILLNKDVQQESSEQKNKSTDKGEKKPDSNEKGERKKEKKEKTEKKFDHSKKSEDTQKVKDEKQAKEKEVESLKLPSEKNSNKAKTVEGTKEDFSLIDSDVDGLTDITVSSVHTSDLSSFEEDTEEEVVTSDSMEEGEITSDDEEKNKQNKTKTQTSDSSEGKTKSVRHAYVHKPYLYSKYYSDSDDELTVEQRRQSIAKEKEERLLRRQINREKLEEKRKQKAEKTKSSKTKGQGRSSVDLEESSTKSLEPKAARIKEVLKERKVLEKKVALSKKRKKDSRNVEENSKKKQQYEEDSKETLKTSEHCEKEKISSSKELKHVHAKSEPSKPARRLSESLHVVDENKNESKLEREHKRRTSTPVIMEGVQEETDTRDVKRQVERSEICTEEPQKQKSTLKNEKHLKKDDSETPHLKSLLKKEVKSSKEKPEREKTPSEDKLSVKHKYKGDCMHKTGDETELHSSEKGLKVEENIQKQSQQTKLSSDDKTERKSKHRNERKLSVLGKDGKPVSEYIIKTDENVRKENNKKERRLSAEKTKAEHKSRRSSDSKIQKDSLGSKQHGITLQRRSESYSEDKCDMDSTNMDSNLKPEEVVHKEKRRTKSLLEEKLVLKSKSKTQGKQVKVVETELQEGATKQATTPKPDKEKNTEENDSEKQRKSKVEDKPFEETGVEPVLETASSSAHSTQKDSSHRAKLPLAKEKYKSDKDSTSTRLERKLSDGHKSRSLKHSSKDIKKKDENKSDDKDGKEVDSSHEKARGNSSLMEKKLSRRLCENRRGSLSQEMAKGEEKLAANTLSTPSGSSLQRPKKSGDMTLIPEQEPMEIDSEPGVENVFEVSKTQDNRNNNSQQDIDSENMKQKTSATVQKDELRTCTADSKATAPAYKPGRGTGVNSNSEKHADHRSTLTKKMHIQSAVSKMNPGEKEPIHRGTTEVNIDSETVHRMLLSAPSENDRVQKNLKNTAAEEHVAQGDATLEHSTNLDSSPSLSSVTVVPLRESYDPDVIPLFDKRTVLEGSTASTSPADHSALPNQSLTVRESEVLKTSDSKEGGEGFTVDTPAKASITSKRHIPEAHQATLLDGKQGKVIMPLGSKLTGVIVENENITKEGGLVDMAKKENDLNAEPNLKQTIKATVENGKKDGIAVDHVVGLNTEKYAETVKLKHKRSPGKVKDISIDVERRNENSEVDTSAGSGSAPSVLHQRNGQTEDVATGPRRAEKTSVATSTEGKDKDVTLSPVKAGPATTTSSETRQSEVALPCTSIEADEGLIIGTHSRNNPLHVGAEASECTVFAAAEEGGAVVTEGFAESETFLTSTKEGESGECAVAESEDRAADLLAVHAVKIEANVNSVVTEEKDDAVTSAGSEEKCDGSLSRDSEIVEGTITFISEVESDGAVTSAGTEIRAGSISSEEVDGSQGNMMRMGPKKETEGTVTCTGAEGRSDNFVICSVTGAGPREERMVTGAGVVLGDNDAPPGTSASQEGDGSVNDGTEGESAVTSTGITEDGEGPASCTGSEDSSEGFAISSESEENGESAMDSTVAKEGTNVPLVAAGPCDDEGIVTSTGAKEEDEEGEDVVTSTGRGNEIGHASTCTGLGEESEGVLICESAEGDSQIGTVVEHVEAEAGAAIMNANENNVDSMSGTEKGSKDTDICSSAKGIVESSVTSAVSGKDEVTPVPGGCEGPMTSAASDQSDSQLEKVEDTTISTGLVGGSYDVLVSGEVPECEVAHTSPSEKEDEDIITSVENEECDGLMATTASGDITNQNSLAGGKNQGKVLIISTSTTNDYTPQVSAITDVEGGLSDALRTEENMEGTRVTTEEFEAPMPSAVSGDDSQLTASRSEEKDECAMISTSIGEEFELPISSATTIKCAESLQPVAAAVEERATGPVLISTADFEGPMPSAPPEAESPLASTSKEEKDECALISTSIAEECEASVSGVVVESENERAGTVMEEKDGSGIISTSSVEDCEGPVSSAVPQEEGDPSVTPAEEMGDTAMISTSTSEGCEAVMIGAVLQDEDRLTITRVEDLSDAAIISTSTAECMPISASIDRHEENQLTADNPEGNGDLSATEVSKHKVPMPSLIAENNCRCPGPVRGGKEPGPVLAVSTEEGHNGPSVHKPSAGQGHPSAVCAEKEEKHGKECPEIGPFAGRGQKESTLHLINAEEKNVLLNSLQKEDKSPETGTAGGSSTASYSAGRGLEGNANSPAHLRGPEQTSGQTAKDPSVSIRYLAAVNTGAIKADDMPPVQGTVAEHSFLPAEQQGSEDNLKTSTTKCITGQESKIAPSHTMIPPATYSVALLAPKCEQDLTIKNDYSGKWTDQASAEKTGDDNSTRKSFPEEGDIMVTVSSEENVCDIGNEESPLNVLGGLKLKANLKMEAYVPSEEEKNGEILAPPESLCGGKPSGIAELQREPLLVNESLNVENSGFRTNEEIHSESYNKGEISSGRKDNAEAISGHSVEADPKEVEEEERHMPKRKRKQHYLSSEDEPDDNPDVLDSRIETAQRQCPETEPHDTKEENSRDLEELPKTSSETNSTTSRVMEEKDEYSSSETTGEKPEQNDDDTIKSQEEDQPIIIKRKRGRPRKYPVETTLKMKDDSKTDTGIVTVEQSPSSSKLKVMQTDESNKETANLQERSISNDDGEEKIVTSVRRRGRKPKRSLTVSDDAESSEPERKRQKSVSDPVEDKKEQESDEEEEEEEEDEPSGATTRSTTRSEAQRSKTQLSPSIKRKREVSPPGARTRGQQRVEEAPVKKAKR
UniProt Q8N201, whole entry, looked up: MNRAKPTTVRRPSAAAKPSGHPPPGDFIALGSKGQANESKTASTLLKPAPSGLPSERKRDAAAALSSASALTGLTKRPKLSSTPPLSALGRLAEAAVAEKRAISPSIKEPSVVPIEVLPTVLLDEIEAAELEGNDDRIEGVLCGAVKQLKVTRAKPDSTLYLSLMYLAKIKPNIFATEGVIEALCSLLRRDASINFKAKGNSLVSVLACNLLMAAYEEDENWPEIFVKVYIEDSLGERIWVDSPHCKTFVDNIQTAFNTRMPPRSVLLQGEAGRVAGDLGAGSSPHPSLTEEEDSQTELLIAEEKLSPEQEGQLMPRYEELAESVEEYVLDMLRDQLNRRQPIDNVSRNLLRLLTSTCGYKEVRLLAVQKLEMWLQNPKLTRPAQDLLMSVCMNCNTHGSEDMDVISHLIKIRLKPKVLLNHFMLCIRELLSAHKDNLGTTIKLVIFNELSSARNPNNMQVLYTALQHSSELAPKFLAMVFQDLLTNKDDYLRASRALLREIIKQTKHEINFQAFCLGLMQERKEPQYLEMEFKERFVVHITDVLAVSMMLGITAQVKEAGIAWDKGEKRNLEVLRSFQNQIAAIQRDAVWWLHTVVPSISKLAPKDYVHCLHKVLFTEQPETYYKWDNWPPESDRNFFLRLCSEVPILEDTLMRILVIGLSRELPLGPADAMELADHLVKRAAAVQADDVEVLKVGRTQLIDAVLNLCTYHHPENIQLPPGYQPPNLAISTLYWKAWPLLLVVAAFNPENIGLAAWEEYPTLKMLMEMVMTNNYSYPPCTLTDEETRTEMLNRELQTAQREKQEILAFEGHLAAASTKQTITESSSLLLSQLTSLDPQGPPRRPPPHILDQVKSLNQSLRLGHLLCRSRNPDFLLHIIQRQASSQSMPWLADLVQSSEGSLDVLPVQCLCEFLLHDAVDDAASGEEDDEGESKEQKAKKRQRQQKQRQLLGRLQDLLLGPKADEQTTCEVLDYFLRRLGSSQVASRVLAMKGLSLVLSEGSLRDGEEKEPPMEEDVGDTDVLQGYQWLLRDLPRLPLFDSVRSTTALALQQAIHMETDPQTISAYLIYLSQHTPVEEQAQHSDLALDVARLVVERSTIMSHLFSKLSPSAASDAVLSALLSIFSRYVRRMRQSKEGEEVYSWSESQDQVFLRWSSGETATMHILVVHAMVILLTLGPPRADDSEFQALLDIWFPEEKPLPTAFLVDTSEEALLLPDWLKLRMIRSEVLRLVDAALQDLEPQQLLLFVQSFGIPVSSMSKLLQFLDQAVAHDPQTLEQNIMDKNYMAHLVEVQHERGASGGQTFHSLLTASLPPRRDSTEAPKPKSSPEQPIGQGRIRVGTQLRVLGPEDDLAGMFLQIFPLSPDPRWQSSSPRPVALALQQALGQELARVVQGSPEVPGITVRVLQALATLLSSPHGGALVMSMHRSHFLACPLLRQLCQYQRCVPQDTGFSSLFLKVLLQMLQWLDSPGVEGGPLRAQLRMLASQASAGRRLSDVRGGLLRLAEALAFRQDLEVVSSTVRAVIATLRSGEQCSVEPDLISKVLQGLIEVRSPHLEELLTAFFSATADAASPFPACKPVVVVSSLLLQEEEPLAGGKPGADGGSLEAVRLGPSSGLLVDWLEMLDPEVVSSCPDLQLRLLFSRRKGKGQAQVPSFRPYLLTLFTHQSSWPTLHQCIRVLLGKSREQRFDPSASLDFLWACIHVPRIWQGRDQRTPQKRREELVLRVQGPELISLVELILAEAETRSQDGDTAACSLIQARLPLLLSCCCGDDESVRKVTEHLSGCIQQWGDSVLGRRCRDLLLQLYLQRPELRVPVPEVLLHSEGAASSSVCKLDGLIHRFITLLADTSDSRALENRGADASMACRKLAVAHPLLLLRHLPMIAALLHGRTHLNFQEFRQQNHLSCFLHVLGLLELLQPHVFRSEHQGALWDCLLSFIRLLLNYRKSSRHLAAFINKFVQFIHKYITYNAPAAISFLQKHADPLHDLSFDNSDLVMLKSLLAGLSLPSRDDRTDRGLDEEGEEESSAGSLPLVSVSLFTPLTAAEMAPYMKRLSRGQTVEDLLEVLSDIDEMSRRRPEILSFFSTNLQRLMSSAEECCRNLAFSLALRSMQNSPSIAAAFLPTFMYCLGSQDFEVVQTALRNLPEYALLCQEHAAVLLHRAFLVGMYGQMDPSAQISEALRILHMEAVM
UniProt Q8N392: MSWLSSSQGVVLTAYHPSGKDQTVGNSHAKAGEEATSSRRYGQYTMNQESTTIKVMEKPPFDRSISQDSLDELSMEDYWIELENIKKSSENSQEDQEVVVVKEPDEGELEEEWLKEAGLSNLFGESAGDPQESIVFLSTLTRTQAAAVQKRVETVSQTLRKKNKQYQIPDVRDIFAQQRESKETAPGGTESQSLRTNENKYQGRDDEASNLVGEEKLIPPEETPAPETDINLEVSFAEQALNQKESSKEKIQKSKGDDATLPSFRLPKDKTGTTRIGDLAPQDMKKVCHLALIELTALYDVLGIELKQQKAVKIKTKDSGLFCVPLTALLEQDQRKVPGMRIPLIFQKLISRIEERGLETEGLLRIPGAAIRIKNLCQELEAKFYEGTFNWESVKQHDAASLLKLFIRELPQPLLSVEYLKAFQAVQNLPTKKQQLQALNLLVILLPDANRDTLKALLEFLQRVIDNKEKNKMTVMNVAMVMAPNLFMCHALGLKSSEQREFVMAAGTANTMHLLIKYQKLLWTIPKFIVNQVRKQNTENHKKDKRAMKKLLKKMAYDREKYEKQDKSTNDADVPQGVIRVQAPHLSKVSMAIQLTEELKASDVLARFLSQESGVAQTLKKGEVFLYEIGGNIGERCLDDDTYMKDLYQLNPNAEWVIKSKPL
UniProt Q8N6T3: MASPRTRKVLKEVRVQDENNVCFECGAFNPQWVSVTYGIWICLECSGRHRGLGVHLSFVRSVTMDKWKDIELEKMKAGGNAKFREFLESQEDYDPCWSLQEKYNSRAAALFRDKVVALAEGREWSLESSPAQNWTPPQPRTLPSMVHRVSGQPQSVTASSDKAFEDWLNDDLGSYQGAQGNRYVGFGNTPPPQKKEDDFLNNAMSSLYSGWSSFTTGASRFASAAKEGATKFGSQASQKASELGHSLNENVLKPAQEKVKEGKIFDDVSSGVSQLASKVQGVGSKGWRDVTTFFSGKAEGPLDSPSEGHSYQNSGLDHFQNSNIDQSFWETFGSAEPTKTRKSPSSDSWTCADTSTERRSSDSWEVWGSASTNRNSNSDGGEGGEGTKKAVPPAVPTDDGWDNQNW
UniProt Q8WV74: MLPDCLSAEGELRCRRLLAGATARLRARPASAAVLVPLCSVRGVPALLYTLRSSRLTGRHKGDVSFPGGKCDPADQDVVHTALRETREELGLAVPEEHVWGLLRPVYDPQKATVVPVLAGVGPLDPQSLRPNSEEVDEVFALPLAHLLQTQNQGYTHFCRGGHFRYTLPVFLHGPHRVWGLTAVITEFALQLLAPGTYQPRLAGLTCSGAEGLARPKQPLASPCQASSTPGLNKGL

Compound: COC(=O)/C=C/c1ccccc1 [methyl cinnamate]
Assay: log2 ratio of iodoacetamide-alkyne labeling of the cysteine site, DMSO over compound (competition); higher = stronger covalent engagement of the cysteine by the compound, active = 1 or more
Conditions: 500 µM; treatment time 1 h; system: HEK293T cell lysate
Summary of the method: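 HEK293T lysate (2 mg/mL) was incubated with electrophile (500 µM) or vehicle for 1 h at ambient temperature and then with iodoacetamide alkyne for 1 h. Labelled proteins were clicked to sCIP-TMT reagents, pooled, digested, enriched on streptavidin and measured by Orbitrap Eclipse LC-MS/MS with FAIMS, with FragPipe quantification. The per-cysteine log2 competition ratio is mean control-channel reporter intensity over mean compound-channel reporter intensity. Across three replicates with duplicate channels, cysteines quantified in only one replicate were excluded.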

log2 ratio of iodoacetamide-alkyne labeling, inactive:
NUP133 C1037 (UniProt Q8WUM0) 0.0719, GPT2 C142 (UniProt Q8TD30) 0.128, LPCAT1 C330 (UniProt Q8NF37) 0.285, EXOC6 C66 (UniProt Q8TAG9) -0.236, XRN1 C132 (UniProt Q8IZH2) 0.157, NAT14 C108 (UniProt Q8WUY8) 0.276, DDX1 C110 (UniProt Q92499) 0.175, CNNM3 C376 (UniProt Q8NE01) 0.115, EXOC6 C135 (UniProt Q8TAG9) 0.469, AHCTF1 C1131 (UniProt Q8WYP5) 0.167, NPEPL1 C504 (UniProt Q8NDH3) -0.024, ATRIP C74 (UniProt Q8WXE1) -0.28, UniProt Q8NFC6_C2570 0.301, INTS1 C185 (UniProt Q8N201) -0.123, PAF1 C218 (UniProt Q8N7H5) 0.102, ARHGAP18 C323 (UniProt Q8N392) 0.0712, UniProt Q8WVB3_C244 0.232, UniProt Q8WZA9_C152 0.232, STAG2 C915 (UniProt Q8N3U4) 0.223, ALDH16A1 C472 (UniProt Q8IZ83) -0.0237, ARFGAP1 C351 (UniProt Q8N6T3) 0.247, UBR7 C424 (UniProt Q8N806) 0.0211, VPS8 C1371 (UniProt Q8N3P4) 0.207, FLAD1 C496 (UniProt Q8NFF5) 0.105, IPO4 C350 (UniProt Q8TEX9) 0.0308, OTUD6B C172 (UniProt Q8N6M0) 0.188, SPATA5 C291 (UniProt Q8NB90) -0.13, KLHDC4 C430 (UniProt Q8TBB5) 0.146, LZTR1 C342 (UniProt Q8N653) 0.153, PPFIBP2 C446 (UniProt Q8ND30) 0.231, NUDT8 C224 (UniProt Q8WV74) 0.347, VPS8 C864 (UniProt Q8N3P4) -0.177, BICD2 C754 (UniProt Q8TD16) 0.0383, CTNNBL1 C370 (UniProt Q8WYA6) -0.317, DGCR8 C514 (UniProt Q8WYQ5) 0.0968, UniProt Q8NC60_C393 -0.0476, IPO4 C42 (UniProt Q8TEX9) -0.00685
